US8946144B2 (The Medicines Company, priority 2006, dated 2015)

Assay: Bone powder binding, microbiological assay of supernatant
Conditions: 1 mg/ml compound in bone meal powder slurry 10 mg/ml in PBS, 37° C., 1 h

SMILES | % Bone binding
CNC(CC(C)C)C(=O)NC1C(=O)NC(CC(N)=O)C(=O)NC2C(=O)NC3C(=O)NC(C(=O)NC(C(=O)OCC(=O)Nc4ccc(CC(P(=O)(O)O)P(=O)(O)O)cc4)c4cc(O)cc(O)c4-c4cc3ccc4O)C(O)c3ccc(c(Cl)c3)Oc3cc2cc(c3OC2OC(CO)C(O)C(O)C2OC2CC(C)(N)C(O)C(C)O2)Oc2ccc(cc2Cl)C1O (stereo not shown) [Compound 21] | 96.7%
CNC(CC(C)C)C(=O)NC1C(=O)NC(CC(N)=O)C(=O)NC2C(=O)NC3C(=O)NC(C(=O)NC(C(=O)OCC(=O)NC(P(=O)(O)O)P(=O)(O)O)c4cc(O)cc(O)c4-c4cc3ccc4O)C(O)c3ccc(c(Cl)c3)Oc3cc2cc(c3OC2OC(CO)C(O)C(O)C2OC2CC(C)(N)C(O)C(C)O2)Oc2ccc(cc2Cl)C1O (stereo not shown) [Compound 18] | 96.5%
CN[C@H](CC(C)C)C(=O)N[C@H]1C(=O)N[C@@H](CC(N)=O)C(=O)N[C@H]2C(=O)N[C@H]3C(=O)N[C@H](C(=O)N[C@H](C(=O)O)c4cc(O)cc(O)c4-c4cc3ccc4O)[C@H](O)c3ccc(c(Cl)c3)Oc3cc2cc(c3O[C@@H]2O[C@H](CO)[C@@H](O)[C@H](O)[C@H]2O[C@H]2C[C@](C)(N)[C@H](O)[C@H](C)O2)Oc2ccc(cc2Cl)[C@H]1O [Vancomycin, vancomycin, reference compound] | 0%
CC(C)C[C@H](C(=O)N[C@H]1C(=O)N[C@@H](CC(N)=O)C(=O)N[C@H]2C(=O)N[C@H]3C(=O)N[C@H](C(=O)N[C@H](C(=O)O)c4cc(O)cc(O)c4-c4cc3ccc4O)[C@H](O[C@H]3C[C@](C)(N)[C@@H](O)[C@H](C)O3)c3ccc(c(Cl)c3)Oc3cc2cc(c3O[C@@H]2O[C@H](CO)[C@@H](O)[C@H](O)[C@H]2O[C@H]2C[C@](C)(NCc3ccc(-c4ccc(Cl)cc4)cc3)[C@@H](O)[C@H](C)O2)Oc2ccc(cc2Cl)[C@H]1O)N(C)C(=O)OCOC(=O)CCCC(P(=O)(O)O)P(=O)(O)O [Compound 60] | 99.9%
CN[C@H](CC(C)C)C(=O)N[C@H]1C(=O)N[C@@H](CC(N)=O)C(=O)N[C@H]2C(=O)N[C@H]3C(=O)N[C@H](C(=O)N[C@H](C(=O)O)c4cc(O)cc(O)c4-c4cc3ccc4O)[C@H](O[C@H]3C[C@](C)(N)[C@@H](O)[C@H](C)O3)c3ccc(c(Cl)c3)Oc3cc2cc(c3O[C@@H]2O[C@H](CO)[C@@H](O)[C@H](O)[C@H]2O[C@H]2C[C@](C)(NCc3ccc(-c4ccc(Cl)cc4)cc3)[C@@H](O)[C@H](C)O2)Oc2ccc(cc2Cl)[C@H]1O [Oritavancin, oritavancin, reference compound] | 0%
CC(C)C[C@H](C(=O)N[C@H]1C(=O)N[C@@H](CC(N)=O)C(=O)N[C@H]2C(=O)N[C@H]3C(=O)N[C@H](C(=O)N[C@H](C(=O)O)c4cc(O)cc(O)c4-c4cc3ccc4O)[C@H](O[C@H]3C[C@](C)(N)[C@@H](O)[C@H](C)O3)c3ccc(c(Cl)c3)Oc3cc2cc(c3O[C@@H]2O[C@H](CO)[C@@H](O)[C@H](O)[C@H]2O[C@H]2C[C@](C)(NCc3ccc(-c4ccc(Cl)cc4)cc3)[C@@H](O)[C@H](C)O2)Oc2ccc(cc2Cl)[C@H]1O)N(C)C(=O)CCC(P(=O)(O)O)P(=O)(O)O [Compound 39] | 99.8%
CC(C)C[C@H](C(=O)N[C@H]1C(=O)N[C@@H](CC(N)=O)C(=O)N[C@H]2C(=O)N[C@H]3C(=O)N[C@H](C(=O)N[C@H](C(=O)O)c4cc(O)cc(O)c4-c4cc3ccc4O)[C@H](O[C@H]3C[C@](C)(N)[C@@H](O)[C@H](C)O3)c3ccc(c(Cl)c3)Oc3cc2cc(c3O[C@@H]2O[C@H](CO)[C@@H](O)[C@H](O)[C@H]2O[C@H]2C[C@](C)(NCc3ccc(-c4ccc(Cl)cc4)cc3)[C@@H](O)[C@H](C)O2)Oc2ccc(cc2Cl)[C@H]1O)N(C)C(=O)OCOC(=O)CCC(P(=O)(O)O)P(=O)(O)O.O=C(O)C(F)(F)F.O=C(O)C(F)(F)F [Compound 65] | 96.9%
